Reference: PubChem BioAssay AID1347423 (Functional Genomics Laboratory (NCATS/FGL), 2020)
Hit rate of the full screen: of about 52,000 sequences, about 210 (0.4%) were called active.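 Rule for the calls: active = gene whose silencing raises cell survival under the drug, median off-target-corrected z-score across its silencing RNAs 2 or more; inactive = the rest.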 This is one part of the list.

assay: Resistance to Poly (ADP-Ribose) Polymerase inhibitor: Gene Identification via Genome-wide siRNA Screen; conditions: mouse BRCA2 R2336H ES cells, olaparib, CellTiter-Glo viability; hits give high values
How it was run: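 Mouse BRCA2 R2336H ES cells were reverse-transfected with siRNA (20 nM final), treated at 48 h with 500 nM olaparib, and read by CellTiter-Glo after 72 h. Scores: MAD-based z per siRNA, median per gene, seed off-target correction.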

| Sequence | z-score |
| --- | --- |
| GCUACUUGAAUUUAAGGAATT against Kdt1 | inactive: -1.04 |
| GGUACCUGAAUGACUUAUATT against Hcfc1 | inactive: -2.25 |
| GGCUCAAUUUGGAAAGGACTT against Anxa8 | inactive: -0.00365 |
| GGUCCCUGGAAACCAUCAGTT against Ssxb2 | inactive: -0.917 |
| GGUUCCCAAUACUAUCAGGTT against D230039L06Rik | inactive: 0.0804 |
| GGUCUUCAAUAAACUCAUCTT against Bzw2 | inactive: -1.36 |
| CCUGUGCAUACGUUUGGCATT against Olfr1335 | inactive: -1.29 |
| GGUGCCUGUAUAUCUCCAATT against 9430007A20Rik | inactive: -0.897 |
| CGAGCACUAUUUUGGAUUATT against Usp12 | inactive: -0.0803 |
| GGAACAUCUACAUUGUGGCTT against D14Ertd226e | inactive: 0.734 |
| GGUUAGCAGGGACCUAAUGTT against Zfp94 | inactive: 0.509 |
| GCACAAACCUGUGGCAUUUTT against Cacnb3 | inactive: 0.868 |
| GGCUCAUUUCCUUAUAUGATT against BC027231 | inactive: 0.135 |
| GCCGCCUGCUAUUUUUCCUTT against AI505034 | inactive: 0.681 |
| GGAUAUGGAUAAAUGACAUTT against BC021875 | inactive: 0.312 |
| ACGAUAUGUUGACCUUGGCTT against LOC545288 | inactive: -0.28 |
| GCUACAUCUGCUUCCUUUUTT against Olfr623 | inactive: -0.237 |
| CCUUUUAUAACUGCUCUCUTT against D17Ertd441e | inactive: -0.567 |
| GGAGAUCGUGGAGAUGUACTT against Myh9 | inactive: -0.484 |
| GGGUGUUAGAAAUCAUUAUTT against AI841987 | inactive: 1.04 |
| GGAAUCAAAUUUGAUGCCATT against Cckar | inactive: 0.28 |
| GGGAUUUAGCACAAGAUACTT against B830045N13Rik | inactive: 1.3 |
| GCCUGCAUUUACAAGUACUTT against Itm2a | inactive: -0.519 |
| GGAAGAAAAAGUCCUGUCCTT against Abp1 | inactive: 2.45 |
| GCGAGGUGAAAAGCUUCUGTT against 5330439J01Rik | inactive: -0.26 |
| GCUUUUGAUCUGGAGACCCTT against 4931406O17Rik | inactive: 0.745 |

Reprinted from the entries so far for reference:

| Sequence | z-score |
| --- | --- |
| GGCUCAAUUUGGAAAGGACTT against Anxa8 | inactive: -0.00365 |
| GGUCCCUGGAAACCAUCAGTT against Ssxb2 | inactive: -0.917 |
| GGUUCCCAAUACUAUCAGGTT against D230039L06Rik | inactive: 0.0804 |
| GGUCUUCAAUAAACUCAUCTT against Bzw2 | inactive: -1.36 |
| CCUGUGCAUACGUUUGGCATT against Olfr1335 | inactive: -1.29 |
| GGUGCCUGUAUAUCUCCAATT against 9430007A20Rik | inactive: -0.897 |

Going on with the list:

| Sequence | z-score |
| --- | --- |
| GGAAGGUAAUAUUACAAGCTT against MGC54896 | inactive: 0.135 |
| GGUGGCUCUCCAAGUUCUATT against Uchl4 | inactive: -0.625 |
| GGACAUGUCGGUUUUGUGCTT against 1810049O03Rik | inactive: 0.309 |
| CCUCUGACACCUUAGCGAATT against 4930403L05Rik | inactive: -0.647 |
| GGUAACCAGUCAACACCCUTT against Cd19 | inactive: 0.768 |
| GCCAAUUGUGUCUAAAUUUTT against A530023O14Rik | inactive: 0.835 |
| GCGAGAACCAAGACCUUUCTT against Tyms | inactive: -1.35 |
| GGCUGUAAUUUUGAACAAUTT against Rnf17 | inactive: -1.26 |
| GGUAUCAAUAAAGUUGUUGTT against Stk11ip | inactive: 0.0177 |
| GGUGAAGCAGAAAGAAAACTT against Pank4 | inactive: -0.176 |
| GGAACCAGAAAGGACAGUCTT against H2-Eb1 | inactive: -1.15 |
| GGACCAGCUGAUCUCAGUATT against Olfr1403 | inactive: -1.26 |
| CCACGAAUUACCUUAAAGUTT against Phf16 | inactive: 2.06 |
| GGAAGUUCAGAAAAAGGCATT against 1200006F02Rik | inactive: 0.592 |
| GCGUGGAAAAGUGUUACCATT against 4930418P06Rik | inactive: -1.33 |
| GGAAAAGUACACAAAGACCTT against Titf1 | inactive: 1.08 |
| CCAGAAUCGAAAUAACCAGTT against Rpgrip1 | inactive: -1.52 |
| GGUACAAGGUGAAGACUUCTT against Reg3a | inactive: -1.98 |
| CCAAACAGAGCCAUUCUAATT against C630028N24Rik | inactive: -0.283 |
| GGGCAUUGAGACUUUGCUGTT against Sit | inactive: -0.0791 |
| GGACAAGGUAUUUUACGUCTT against Mars | inactive: 0.873 |
| GCAUCUCCUGCCAAAGCAGTT against Ms4a2 | inactive: 0.75 |
| GGAUGUUGAAGAUGAGUCATT against BC023882 | inactive: -0.192 |
| GCGUGACCAUUAUUUCCUGTT against 7420416P09Rik | inactive: 0.406 |
| CCUACUCAAGAAGCUCAGUTT against Hpse | inactive: -0.357 |
| CCUGUACUCUACCUCACACTT against 8430427H17Rik | inactive: -1.24 |

| Sequence | z-score |
| --- | --- |
| GGACAAGAAUUGGAACAAATT against Zfp84 | inactive: 0.628 |
| GGCCAGAGGACUAUGUUAUTT against C1sb | inactive: -0.42 |
| CCUAAACAGCCUUAUCGAUTT against Clca1 | inactive: 0.859 |
| GGAGGUUGAAGUGCAGGAATT against Mab21l1 | inactive: -1.24 |
| CCCUUGUCUAAAAUAUACATT against BC066028 | inactive: -0.51 |
| GGACGCACACGUACAUCGUTT against Rkhd1 | inactive: 1.35 |
| GGGCAAGCCACUCAUGUUGTT against Me2 | inactive: 0.642 |
| GGCCAAUAGGACAUAUCUATT against Qprt | inactive: 0.479 |
| GGAGACCACAGACCUCAAATT against Fcgrt | inactive: -0.767 |
| CCAUCCCGUUCACUAGAGATT against 1110056A04Rik | inactive: 0.0509 |
| GCUUUUGUGUCAUGUUGCATT against Ncdn | inactive: 0.0346 |
| CCAUUUUAACCAAUGGUGUTT against Olfr572 | inactive: 0.23 |
| GGCAAGUCUCAAAUUAUUUTT against D930030D11Rik | inactive: 0.00409 |
| GGGUCCUAAACAGACCAGATT against 1600014E20Rik | inactive: 0.215 |
| GGAUAUUUCCAGACAAUAUTT against 5832418A03Rik | inactive: 0.257 |
| CGCCACUGCUUUGAUUACUTT against 6330578E17Rik | inactive: 0.781 |
| GGACAAGAAGAAGUCCAUUTT against Isl2 | inactive: -0.147 |
| GGCUAACAACAUCUUCUCCTT against Tlr7 | inactive: -2.4 |
| GGAUGGUUCUGAGGUGAAATT against Il17e | inactive: -2.45 |
| GCGCAUGGUGCAGAACCUATT against Krt1-12 | inactive: -0.185 |
| GGUUUGGCAAACAUUUCAUTT against Akr1c20 | inactive: 0.514 |
| GGCAUAGGUAUAUUUGAGUTT against Lep | inactive: 0.747 |
| CCUGAUUAAUGUGACUGGGTT against Dbr1 | inactive: 0.803 |
| GGCGAUGGAAAGACUGCACTT against Hus1b | inactive: -0.485 |
| GGUCAAAGGGAAACAAGUUTT against Creb3l4 | inactive: -2.55 |
| GGCUUGGAUUUUGAAAUACTT against P140 | inactive: 0.368 |

| Sequence | z-score |
| --- | --- |
| GGUGUUGAGACCAAUUAGCTT against Dqx1 | inactive: 1.07 |
| GGAUCUGCAUUUCACUAUUTT against Pik4ca | inactive: -0.514 |
| GCAUCAUGUCAUUCUUUACTT against Fstl5 | inactive: 0.101 |
| GGUGUACUUUAUCUCACGATT against Olfr6 | inactive: 0.675 |
| GCACCAUUUUAAGAUCUGCTT against 1110020C13Rik | inactive: 0.381 |
| CGAAGCAAGAGCACUGCCUTT against Atp6v1h | inactive: -0.744 |
| GCGAACGGACAUCUCCUUCTT against Akr1b8 | inactive: 0.937 |
| GGCUUUUUUGCUAUCCUAUTT against Hoxc5 | inactive: 0.124 |
| GGCUAGUGGAACACUUUAGTT against 2210010B09Rik | inactive: -0.759 |
| GGCAAGGAAGGAGAUUGCUTT against 2400003C14Rik | inactive: -0.376 |
| GGUUUGUUUGUUUUUUGGUTT against Jub | inactive: 0.404 |
| GCCAGUACCCAUAUGACAGTT against Irx4 | inactive: 0.46 |
| CCGUUCCCUAAAUGAAUAUTT against Smc6l1 | inactive: -0.308 |
| GCAAGAAGUGGAGUAUUUUTT against AU016977 | inactive: 0.0217 |
| GCUGUUAAACGAAAUGUACTT against Esx1 | inactive: 0.764 |
| GGUGGUUAUGAUCUAUGAUTT against Dazap1 | inactive: -0.659 |
| GCAUGGACAAAUGUCCCUGTT against 1110055J05Rik | inactive: -0.0223 |
| GGACUUCUACCACUGGAGGTT against Alox12b | inactive: 0.686 |
| GCCAGCUAAAGAAGUCUAUTT against Gpr17 | inactive: -0.363 |
| GGCCAUUGUGACAAACAGATT against Ltf | inactive: 0.509 |
| CCUAUAGCCUAUGAGAGAGTT against 4833418A01Rik | inactive: 0.0749 |
| GGCAAACAAAACAUUGUUGTT against Pla2g1br | inactive: 1.91 |
| CCGAUUAGAAAAGACCAAATT against 2610528H13Rik | inactive: 0.624 |
| CGACCCUAAUCUGGUGAACTT against Mfap5 | inactive: -0.0603 |
| GGCCAUGUGUAAUUGAAGATT against 9230112E08Rik | inactive: 1.59 |
